Test results reported in article doi:10.1101/152272.
No constants are given. Whether binding was seen depends on the method and setting. Some results given as binding are weak or reduced against the parent protein; the word gives no strength.

By UniProt entry, the sequences of proteins in these tests, tags left out. Residues count along the entry.
UniProt P02769, residues 25-607: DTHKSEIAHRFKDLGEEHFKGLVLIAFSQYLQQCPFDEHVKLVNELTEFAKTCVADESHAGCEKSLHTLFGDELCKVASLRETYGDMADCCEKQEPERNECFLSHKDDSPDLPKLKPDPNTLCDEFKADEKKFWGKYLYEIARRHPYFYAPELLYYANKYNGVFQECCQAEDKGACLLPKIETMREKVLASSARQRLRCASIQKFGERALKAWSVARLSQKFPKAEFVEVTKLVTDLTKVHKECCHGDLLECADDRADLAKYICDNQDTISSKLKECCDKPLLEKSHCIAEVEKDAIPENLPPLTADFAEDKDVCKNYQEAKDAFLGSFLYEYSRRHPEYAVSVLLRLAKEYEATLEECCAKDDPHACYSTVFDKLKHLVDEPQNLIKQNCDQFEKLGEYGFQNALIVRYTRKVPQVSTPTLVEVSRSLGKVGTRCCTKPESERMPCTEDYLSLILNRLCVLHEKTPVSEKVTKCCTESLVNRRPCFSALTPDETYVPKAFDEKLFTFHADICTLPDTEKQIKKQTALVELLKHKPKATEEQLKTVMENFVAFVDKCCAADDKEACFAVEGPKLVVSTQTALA

Target: Bovine serum albumin (bovine) (UniProt P02769)
Test: native gel or EMSA

Bovine serum albumin (from UniProt P02769 25-607)
binding: binds weakly
